The list shows a part of the results. The calls rarely recur for the same compound in another form.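 Kinases were expressed as nanoluciferase fusions in K562 cells and luminescence was read every 4 h between 2 and 18 h as percent of control, DMSO set to 100% and a positive control to 0%. A time point counts as decreased when the signal drops significantly (2 sigma). The hit call is the authors' own, does not follow from the count of time points alone, and its rule is not shown.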
Molecular target: ERN1 (UniProt O75460)
Assay: kinase-Nluc reporter destabilization hit call (1 = scored as downregulated) (binary); higher = compound decreases kinase abundance
Conditions: K562; 2-18 h

The chains behind the UniProt entries cited, without tags or fusion partners. Where a name states a change or a piece, a line headed by the entry shows the natural chain unless it says otherwise.
UniProt O75460: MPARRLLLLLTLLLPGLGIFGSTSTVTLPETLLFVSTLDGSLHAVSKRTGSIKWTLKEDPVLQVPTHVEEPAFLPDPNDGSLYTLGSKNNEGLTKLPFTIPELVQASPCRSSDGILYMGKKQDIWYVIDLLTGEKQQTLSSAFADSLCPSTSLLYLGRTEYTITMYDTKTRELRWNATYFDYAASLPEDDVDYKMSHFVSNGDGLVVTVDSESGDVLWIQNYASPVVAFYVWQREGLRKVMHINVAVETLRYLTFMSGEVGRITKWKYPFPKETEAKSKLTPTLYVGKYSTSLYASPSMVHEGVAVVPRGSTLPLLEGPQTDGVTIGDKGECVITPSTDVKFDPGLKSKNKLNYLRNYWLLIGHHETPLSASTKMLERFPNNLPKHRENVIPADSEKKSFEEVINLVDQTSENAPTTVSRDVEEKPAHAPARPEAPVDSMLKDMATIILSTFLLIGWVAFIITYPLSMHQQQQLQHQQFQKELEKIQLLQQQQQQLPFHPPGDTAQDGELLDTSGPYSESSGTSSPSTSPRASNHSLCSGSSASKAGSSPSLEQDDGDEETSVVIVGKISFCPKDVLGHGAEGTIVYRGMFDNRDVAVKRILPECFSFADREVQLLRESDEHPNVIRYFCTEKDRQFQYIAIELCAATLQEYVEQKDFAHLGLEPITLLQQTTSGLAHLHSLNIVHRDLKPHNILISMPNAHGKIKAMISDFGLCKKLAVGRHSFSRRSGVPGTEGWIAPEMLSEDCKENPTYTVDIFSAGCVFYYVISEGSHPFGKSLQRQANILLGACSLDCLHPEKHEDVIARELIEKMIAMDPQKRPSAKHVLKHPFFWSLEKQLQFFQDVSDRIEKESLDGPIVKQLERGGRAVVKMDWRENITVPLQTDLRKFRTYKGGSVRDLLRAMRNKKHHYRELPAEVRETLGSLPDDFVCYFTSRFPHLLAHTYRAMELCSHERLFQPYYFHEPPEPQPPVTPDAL

kinase-Nluc reporter destabilization hit call, inactive:
CC(C)Cn1ncc2cc(Oc3ccc(F)cc3F)c(C(=O)NCCN(C)C)cc21 [p38α inhibitor 1] (10 µM) 0
CNc1cc2c(Nc3cccc(Br)c3)ncnc2cn1 (10 µM) 0
CN1C(=O)[C@@H](NC(=O)c2cc(Cc3ccccc3)on2)COc2ccccc21 (10 µM) 0
CC(C1CC1)n1cnc2c(NCc3cccc(C(F)(F)F)c3)nc(NCCN(C)C)nc21 (centres undefined) (10 µM) 0
Cc1n[nH]c2ncc(C(=O)N3CCC[C@H]3c3ccc(Cl)cc3)cc12 (10 µM) 0
COc1ccc(Br)c(C=O)c1O [6-Bromo-2-hydroxy-3-methoxybenzaldehyde] (10 µM) 0
Oc1ccc(-c2cnc3ccc(NCc4ccco4)nn23)cc1 [IRAK inhibitor 2] (2.5 µM) 0
C[C@H](Nc1cc2c(-c3ccc4c(c3)OCO4)noc2cn1)c1ccccc1 (10 µM) 0
Nc1ccc(C(=O)Nc2cccc(-c3nc(N4CCOCC4)c4oc5ncccc5c4n3)c2)cn1 (10 µM) 0
CCOC(=O)c1c(N2CCc3ccc(OC)cc3C2)oc(C=C2C=Nc3ncccc32)c1O (10 µM) 0
Cc1ncc(-c2cc(F)c(O)c(F)c2)cc1-c1cc(F)c(O)c(F)c1 (10 µM) 0
N=C(NC(=N)N1CCCC1)Nc1ccc(OC(F)(F)F)cc1 (10 µM) 0
CC1(C)CN(C(=O)c2ccc(-c3cccc4nc(NC(=O)C5CC5)nn34)cc2)C1 [Solcitinib] (10 µM) 0
COc1c(O)cc(O)c2c(=O)cc(-c3ccccc3)oc12 [Wogonin] (10 µM) 0
O=C(NC[C@H](O)CO)c1ccncc1Nc1ccc(I)cc1F [Pimasertib] (10 µM) 0
N#Cc1cnc(Nc2cc(NC[C@H]3CNCCO3)c(C(F)(F)F)cn2)cn1 (10 µM) 0
CCNC(=O)Nc1ccc(-c2nc3c(c(N4CCOC[C@@H]4C)n2)CCN(C2COC2)C3)cc1 (2.5 µM) 0
COc1cc2ncnc(Nc3cc(Br)c(O)c(Br)c3)c2cc1OC (2.5 µM) 0
Nc1ccc(-c2nc3ccc(-c4nc5ccc(N)cc5[nH]4)cc3[nH]2)cc1 (10 µM) 0
CCCCC(=O)OCC(=O)[C@]1(O)Cc2c(O)c3c(c(O)c2[C@@H](O[C@H]2C[C@H](NC(=O)C(F)(F)F)[C@H](O)[C@H](C)O2)C1)C(=O)c1c(OC)cccc1C3=O [Valrubicin] (10 µM) 0
CCOC(=O)c1c(Nc2ccccc2Cl)oc(/C=C2\C=Nc3ncccc32)c1O (10 µM) 0
Nc1[nH]nc2nnc(-c3c(-c4ccccc4)nn4ccccc34)cc12 (10 µM) 0
COc1cc2nc(NC3CC3)nc(NC3CCN(C(C)C)CC3)c2cc1OC (10 µM) 0
S=C(NCc1ccc2c(c1)OCO2)N1CCN(c2ncnc3c2oc2ccccc23)CC1 [Amuvatinib] (2.5 µM) 0
CC(=O)O[C@@H]1[C@@H](OC(C)=O)[C@@H](O)[C@H](Oc2c(-c3ccc(O)cc3)oc3cc(O)cc(O)c3c2=O)O[C@H]1C (10 µM) 0
CC1=CC(=O)C(C(C)C)=C/C1=N/OC(=O)c1ccccc1C [Poloxin] (2.5 µM) 0
CO[C@@H]1[C@H](N(C)C(=O)c2ccccc2)C[C@H]2O[C@]1(C)n1c3ccccc3c3c4c(c5c6ccccc6n2c5c31)C(=O)NC4 [Midostaurin] (2.5 µM) 0
Fc1ccc(Cl)cc1-c1nc(Nc2ccncc2)c2nccnc2n1 (10 µM) 0
CN1CCC(Nc2ccc(C(=O)Nc3cc(-c4ccc5c(c4)OCO5)[nH]n3)cc2)CC1 (10 µM) 0
CN1CCC(Nc2nc(Nc3ccc(Oc4ccccc4)cc3)c3c(=O)[nH]cc(Br)c3n2)CC1 (2.5 µM) 0
O=C(COc1ccc(Cl)cc1)NC1CCC(NC(=O)COc2ccc(Cl)cc2)CC1 (stereo not drawn) [ISRIB (trans-isomer)] (10 µM) 0
Cc1ccc(C2CC(=O)NC(SCC(=O)Nc3nccs3)=C2C#N)cc1 (centres undefined) [Necrostatin-34] (10 µM) 0
CCCCNc1ncc(C(=O)NCc2ccc(-n3ccnc3)cc2)c(NC2CCC(O)CC2)n1 (centres undefined) (10 µM) 0
O=C1NC(=O)C(Cc2c[nH]c3c(Cl)cccc23)N1 (centres undefined) [Necroptosis-IN-1] (10 µM) 0
O=C1C=CC2=C3c4cc(O)c(O)cc4CC3(O)COC2=C1O (centres undefined) [Hematein] (10 µM) 0
NC(=O)c1cnc(N[C@@H]2CCCC[C@@H]2N)nc1Nc1cccc(-n2nccn2)c1 (2.5 µM) 0
COc1cc2nc(-c3cc(F)ccc3O)nc(N[C@@H]3CNC[C@H]3C(C)(C)O)c2cc1OC (2.5 µM) 0
CN1CCN(Cc2ccc(-c3cn(C4CCC(O)CC4)c4nc(NCCC5CC5)ncc34)cc2)CC1 (centres undefined) (2.5 µM) 0
O=S(=O)(c1ccc(O)cc1O)N1Cc2cc(O)cc(O)c2C1 (10 µM) 0

Of the compounds above, two contain a cyano group.
kinase-Nluc reporter destabilization hit call, inactive:
N#Cc1cnc(Nc2cc(NC[C@H]3CNCCO3)c(C(F)(F)F)cn2)cn1 (10 µM) 0
Cc1ccc(C2CC(=O)NC(SCC(=O)Nc3nccs3)=C2C#N)cc1 (centres undefined) [Necrostatin-34] (10 µM) 0

Source: the supplement of paper PMC12823440, “Inhibitors supercharge kinase turnover through native proteolytic circuits” (Nature, 2025)
